# Measurements taken from US6030960A, “Method of treating hepatitis virus infections” (priority 1998, dated 2000).
# At least one compound was matched to its structure with a doubt left.
# Key:
# Format in all cases: cell-based
# Settings in all cases: in words
# [1] = test system: Hepatitis B virus; experiment: Anti-hepatitis B virus activity in HEP-G2 cells persistently infected with HBV (Table 2)
# Procedure: HEP-G2 cells persistently infected with HBV were treated daily with fresh D-MEM containing 20% FBS and 10 μM compound. After 9 days incubation and treatment, the overlay medium was harvested to assay the quantity of Hepatitis B virus s antigen (HBsAg) and HBeAg by EIA (Abbott Laboratories). The overlay medium was diluted to levels of antigen in the linear range of the assay. Standard curves using dilutions of positive HBsAg and HBeAg controls were included in each assay. Virion DNA was assayed using the method set forth in Korba and Gerin, Antiviral Res., 19, 5,5-70 (1992), incorporated by reference herein. HBV DNA was extracted from the overlay medium containing virus particles and analyzed by a slot-blot hybridization technique using ^32 P-labelled 3.2 Kb Eco R1 HBV DNA fragment by comparisons to HBV standards present on nitrocellulose filters using an AMBIS beta scanner. EC90 values (90% effective concentration, i.e., drug concentration which induces a 90% decrease in the levels of HBV DNA replication intermediates in treated versus control cells) were calculated by linear regression analysis. The relative levels of HBsAg, HBeAg and virion DNA were calulated as a percentage of the average levels obtained from the untreated controls.
# [2] = test system: Hepatitis B virus; experiment: Effect of alkyl lipids on HBV replication in HBV persistently infected human HEP G2 cells (Table 6)
# Procedure: Cells were treated with a particular compound for nine days at 37° C. Analysis of intracellular HEIV DNA was done 24 hours following the ninth day of treatment. […] The levels of integrated HBV DNA in each cellular DNA preparation were used to calculate the levels of episomal 3.2-3.8 Kb HBV genomes (Mono) and HBV DNA replication intermediates (RI). A zero value indicates an undetectable level of HBV virion DNA. The sensitivity cut-off was 0.1 pg DNA/ml of culture medium.
# [3] = test system: Hepatitis B virus; experiment: Effect on synthesis of antigen markers in persistently infected human HEP G2 cell cultures (Table 7)
# Procedure: Cells were treated with compound for nine days at 37° C. The overlay medium was harvested to measure levels of HBsAg, HBeAg and virion DNA. HBsAg and HBeAg were assayed by EIA (Abbott Laboratories). Virion DNA levels were measured as described in section B above.
smiles,measurement,setting,value
"CCCCCCCCCCCCCCCCSCC(C[N+](C)(C)CCO)OC (racemic) [CP-7, N-[rac-3-(hexadecylthio)-2-methoxy-1-propyl]-N,N-dimethyl-N-(2-hydroxyethyl) ammonium bromide]",anti-HBV activity,[1],moderate anti-HBV inhibitory activity
same,inhibition of HBV replication,[2],moderately inhibitory of HBV replication
same,effect on HBsAg levels released into the culture medium,[3],None of the compounds tested
same,reduction in HBeAg and virion DNA levels,[3],caused a reduction
